From patent publication US6667311B2, “Nitrogen substituted biaryl purine derivatives as potent antiproliferative agents” (Albany Molecular Research, Inc., priority 2001, dated 2003)
For at least one compound, name, drawing or mass did not settle the structure.

Test system: Tumor Cells in Hollow Fibers
Assay: NCI Hollow Fiber Assay
Format: in vivo

Structure (SMILES): CC(=O)N[C@H]1CC[C@H](Nc2nc(NCc3ccc(-c4ccccc4)nc3)c3ncn(C(C)C)c3n2)CC1 [Compound 87]
- Cell Types Killed: H522
